The list shows a part of the results. The data scatter; read single values as rough.
Legend:
[1] = compound: ClCC(=O)N[C@@H]1CCCc2ccccc12; experiment: log2 mean competition ratio of IA-DTB cysteine labelling (DMSO/compound) (log2 ratio); higher = stronger cysteine engagement by compound; settings: treatment time: 4 h, cell line lysate: HEK293T
Procedure: (§1)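 IA-DTB competitive cysteine chemoproteomics in HEK293T RIPA lysate. Lysates were treated with compound 29 or 30 at 50 or 200 µM for 4 h, then IA-DTB (500 µM, 1 h), trypsin-digested, NeutrAvidin-enriched and analysed by diaPASEF. Competition ratio = intensity DMSO / intensity compound (n=4 treated, n=64 DMSO); binding: mean log2 CR ≥ 1 and p ≤ 0.05 plus QC filters. Target is the cysteine site.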

By UniProt entry, the sequences of proteins in these tests, tags left out. Where a name states a change or a piece, a line headed by the entry shows the natural chain unless it says otherwise. Residues count along the entry.
UniProt Q96EB1, 2-23: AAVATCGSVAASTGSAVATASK
UniProt Q06265, whole entry, looked up: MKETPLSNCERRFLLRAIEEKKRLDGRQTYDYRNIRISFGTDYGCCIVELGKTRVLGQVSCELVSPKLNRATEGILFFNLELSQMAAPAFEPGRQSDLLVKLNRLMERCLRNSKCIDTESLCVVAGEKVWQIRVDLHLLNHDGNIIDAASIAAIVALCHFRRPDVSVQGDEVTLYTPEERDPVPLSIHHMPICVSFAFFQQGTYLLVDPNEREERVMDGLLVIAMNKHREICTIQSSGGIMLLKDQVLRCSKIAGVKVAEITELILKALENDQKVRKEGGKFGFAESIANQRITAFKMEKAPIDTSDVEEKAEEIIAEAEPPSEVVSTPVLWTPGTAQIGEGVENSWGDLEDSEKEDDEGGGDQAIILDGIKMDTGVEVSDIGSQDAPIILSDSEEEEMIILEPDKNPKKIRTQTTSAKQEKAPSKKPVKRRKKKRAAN
UniProt Q6IA86, 121-140: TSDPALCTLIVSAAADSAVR
UniProt Q52LR7, 413-432: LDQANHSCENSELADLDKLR
UniProt P54753: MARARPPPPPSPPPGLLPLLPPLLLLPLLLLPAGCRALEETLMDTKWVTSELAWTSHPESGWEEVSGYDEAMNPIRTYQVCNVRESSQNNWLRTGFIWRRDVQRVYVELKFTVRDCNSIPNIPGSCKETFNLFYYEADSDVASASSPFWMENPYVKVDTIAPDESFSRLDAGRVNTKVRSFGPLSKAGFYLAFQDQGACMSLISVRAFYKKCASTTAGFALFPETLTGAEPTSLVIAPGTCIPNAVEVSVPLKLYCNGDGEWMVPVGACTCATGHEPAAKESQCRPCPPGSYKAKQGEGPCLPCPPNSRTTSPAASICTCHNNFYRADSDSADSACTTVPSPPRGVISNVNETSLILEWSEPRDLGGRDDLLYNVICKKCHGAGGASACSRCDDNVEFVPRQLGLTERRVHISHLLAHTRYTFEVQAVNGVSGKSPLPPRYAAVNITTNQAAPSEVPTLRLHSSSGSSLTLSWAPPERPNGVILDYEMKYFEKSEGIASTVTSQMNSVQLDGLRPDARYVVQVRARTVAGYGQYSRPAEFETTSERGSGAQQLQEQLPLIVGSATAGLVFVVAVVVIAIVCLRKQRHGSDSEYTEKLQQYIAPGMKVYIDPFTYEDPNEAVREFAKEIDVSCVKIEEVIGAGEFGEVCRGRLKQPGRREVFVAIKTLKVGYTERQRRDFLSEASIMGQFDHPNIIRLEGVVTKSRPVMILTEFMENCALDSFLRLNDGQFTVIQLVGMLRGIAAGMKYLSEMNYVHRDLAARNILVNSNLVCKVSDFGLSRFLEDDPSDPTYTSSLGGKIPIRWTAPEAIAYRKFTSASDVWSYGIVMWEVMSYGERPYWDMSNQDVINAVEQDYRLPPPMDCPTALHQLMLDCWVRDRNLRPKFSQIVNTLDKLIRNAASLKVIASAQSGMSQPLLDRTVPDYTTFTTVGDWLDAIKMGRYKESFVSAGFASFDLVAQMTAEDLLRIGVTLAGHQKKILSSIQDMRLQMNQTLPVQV
UniProt Q96PV7: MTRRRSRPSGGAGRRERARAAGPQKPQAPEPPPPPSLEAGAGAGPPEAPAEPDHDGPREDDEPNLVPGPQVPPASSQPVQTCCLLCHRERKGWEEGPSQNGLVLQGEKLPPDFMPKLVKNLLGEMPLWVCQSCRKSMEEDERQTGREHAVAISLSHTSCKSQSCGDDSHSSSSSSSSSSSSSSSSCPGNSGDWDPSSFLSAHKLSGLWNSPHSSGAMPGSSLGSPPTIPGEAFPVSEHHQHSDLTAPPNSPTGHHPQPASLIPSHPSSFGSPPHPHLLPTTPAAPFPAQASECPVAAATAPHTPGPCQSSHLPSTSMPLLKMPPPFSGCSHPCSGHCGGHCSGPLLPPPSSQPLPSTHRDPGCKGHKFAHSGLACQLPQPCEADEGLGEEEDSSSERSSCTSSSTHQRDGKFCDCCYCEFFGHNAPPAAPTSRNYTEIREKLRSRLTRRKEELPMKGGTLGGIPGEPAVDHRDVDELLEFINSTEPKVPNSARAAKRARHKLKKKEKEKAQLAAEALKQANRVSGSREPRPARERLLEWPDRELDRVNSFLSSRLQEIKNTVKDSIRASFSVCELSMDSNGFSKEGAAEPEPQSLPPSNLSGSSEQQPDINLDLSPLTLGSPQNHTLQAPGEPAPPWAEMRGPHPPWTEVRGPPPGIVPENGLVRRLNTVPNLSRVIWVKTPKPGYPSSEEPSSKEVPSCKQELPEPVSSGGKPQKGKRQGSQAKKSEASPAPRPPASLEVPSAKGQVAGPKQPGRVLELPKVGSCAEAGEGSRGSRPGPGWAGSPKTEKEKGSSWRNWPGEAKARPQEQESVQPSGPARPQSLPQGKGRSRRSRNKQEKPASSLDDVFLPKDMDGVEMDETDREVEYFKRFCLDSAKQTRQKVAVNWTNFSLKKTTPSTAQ
UniProt Q9UBU6, 75-102: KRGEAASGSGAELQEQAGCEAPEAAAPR
UniProt Q5RKV6, whole entry, looked up: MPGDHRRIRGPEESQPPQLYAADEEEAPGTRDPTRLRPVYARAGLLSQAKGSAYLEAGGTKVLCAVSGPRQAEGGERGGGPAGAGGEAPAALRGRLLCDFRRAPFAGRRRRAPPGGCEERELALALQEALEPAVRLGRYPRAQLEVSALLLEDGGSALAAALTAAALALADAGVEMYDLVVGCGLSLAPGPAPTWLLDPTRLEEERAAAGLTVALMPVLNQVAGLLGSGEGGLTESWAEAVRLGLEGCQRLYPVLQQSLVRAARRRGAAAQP
UniProt O00471: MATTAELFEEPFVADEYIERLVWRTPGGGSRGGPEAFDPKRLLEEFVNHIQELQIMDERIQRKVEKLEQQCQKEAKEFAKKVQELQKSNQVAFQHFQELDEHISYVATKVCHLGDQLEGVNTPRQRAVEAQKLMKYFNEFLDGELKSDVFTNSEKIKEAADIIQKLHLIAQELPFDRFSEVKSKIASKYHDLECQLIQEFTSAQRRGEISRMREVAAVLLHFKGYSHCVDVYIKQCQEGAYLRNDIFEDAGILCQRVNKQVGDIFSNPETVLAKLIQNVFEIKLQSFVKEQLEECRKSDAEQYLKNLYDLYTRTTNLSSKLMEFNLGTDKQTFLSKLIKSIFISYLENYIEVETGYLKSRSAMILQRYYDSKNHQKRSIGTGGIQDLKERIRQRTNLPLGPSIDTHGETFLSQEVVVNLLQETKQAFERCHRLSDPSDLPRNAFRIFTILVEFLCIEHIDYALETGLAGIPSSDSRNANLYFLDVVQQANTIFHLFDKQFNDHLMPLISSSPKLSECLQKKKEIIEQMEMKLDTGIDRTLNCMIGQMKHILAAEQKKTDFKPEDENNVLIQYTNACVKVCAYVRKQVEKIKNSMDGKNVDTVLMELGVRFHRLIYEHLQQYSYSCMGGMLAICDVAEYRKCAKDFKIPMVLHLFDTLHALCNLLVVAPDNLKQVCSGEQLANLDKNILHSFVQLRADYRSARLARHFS
UniProt Q86YB8: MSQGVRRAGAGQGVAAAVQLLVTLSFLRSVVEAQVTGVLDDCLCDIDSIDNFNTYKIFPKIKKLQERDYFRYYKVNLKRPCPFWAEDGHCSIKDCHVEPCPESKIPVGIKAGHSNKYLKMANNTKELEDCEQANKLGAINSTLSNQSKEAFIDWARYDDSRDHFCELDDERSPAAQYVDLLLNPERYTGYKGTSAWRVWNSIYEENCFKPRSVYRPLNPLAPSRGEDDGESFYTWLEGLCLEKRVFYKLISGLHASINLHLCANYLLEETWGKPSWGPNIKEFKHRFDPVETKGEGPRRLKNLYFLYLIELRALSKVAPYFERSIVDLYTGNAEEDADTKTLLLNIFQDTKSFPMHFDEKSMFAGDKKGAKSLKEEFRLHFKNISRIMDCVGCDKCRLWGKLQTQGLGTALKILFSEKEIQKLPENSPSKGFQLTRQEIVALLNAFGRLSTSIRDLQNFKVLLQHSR
UniProt Q96EK7: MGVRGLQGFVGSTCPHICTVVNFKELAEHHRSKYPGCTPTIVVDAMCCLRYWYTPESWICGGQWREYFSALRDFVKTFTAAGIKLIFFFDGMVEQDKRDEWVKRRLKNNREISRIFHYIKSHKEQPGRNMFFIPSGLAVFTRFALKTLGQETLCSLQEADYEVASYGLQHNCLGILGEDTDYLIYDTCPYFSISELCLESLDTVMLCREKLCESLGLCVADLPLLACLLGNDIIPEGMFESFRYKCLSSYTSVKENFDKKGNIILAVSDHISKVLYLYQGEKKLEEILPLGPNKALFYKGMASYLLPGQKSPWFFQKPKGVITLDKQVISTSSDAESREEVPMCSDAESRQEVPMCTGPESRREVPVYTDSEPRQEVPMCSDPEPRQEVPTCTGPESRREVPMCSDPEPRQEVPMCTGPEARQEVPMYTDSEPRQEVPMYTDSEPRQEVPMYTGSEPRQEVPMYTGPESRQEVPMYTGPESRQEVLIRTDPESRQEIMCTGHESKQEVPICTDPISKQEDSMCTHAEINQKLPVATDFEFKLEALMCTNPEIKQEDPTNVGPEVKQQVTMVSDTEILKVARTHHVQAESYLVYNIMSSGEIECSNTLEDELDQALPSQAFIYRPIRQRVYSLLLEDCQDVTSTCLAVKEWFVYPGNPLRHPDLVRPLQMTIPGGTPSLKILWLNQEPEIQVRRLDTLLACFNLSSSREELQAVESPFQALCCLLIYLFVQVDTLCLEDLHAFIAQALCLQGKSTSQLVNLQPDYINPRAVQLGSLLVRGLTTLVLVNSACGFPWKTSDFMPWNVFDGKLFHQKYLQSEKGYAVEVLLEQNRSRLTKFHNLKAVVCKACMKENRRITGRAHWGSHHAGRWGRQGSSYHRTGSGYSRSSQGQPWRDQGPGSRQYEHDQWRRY
UniProt O95677: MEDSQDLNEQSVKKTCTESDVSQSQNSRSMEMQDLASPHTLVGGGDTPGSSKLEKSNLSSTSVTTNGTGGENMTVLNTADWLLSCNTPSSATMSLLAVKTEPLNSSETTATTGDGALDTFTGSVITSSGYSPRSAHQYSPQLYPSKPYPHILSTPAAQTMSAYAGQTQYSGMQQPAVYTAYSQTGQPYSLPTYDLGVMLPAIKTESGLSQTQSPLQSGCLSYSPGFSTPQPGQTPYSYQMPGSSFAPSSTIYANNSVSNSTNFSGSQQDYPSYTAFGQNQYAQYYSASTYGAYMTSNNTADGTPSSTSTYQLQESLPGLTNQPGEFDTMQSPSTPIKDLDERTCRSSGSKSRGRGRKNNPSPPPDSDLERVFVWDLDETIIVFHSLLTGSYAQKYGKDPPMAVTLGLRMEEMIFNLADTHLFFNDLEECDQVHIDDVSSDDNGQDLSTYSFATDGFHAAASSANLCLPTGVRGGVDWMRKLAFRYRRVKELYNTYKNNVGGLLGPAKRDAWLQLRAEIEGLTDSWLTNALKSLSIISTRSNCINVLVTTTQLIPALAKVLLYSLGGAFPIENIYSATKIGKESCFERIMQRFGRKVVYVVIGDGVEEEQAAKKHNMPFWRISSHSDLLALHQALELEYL
UniProt Q8WU58, 280-300: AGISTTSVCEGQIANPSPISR
UniProt Q9HCM4: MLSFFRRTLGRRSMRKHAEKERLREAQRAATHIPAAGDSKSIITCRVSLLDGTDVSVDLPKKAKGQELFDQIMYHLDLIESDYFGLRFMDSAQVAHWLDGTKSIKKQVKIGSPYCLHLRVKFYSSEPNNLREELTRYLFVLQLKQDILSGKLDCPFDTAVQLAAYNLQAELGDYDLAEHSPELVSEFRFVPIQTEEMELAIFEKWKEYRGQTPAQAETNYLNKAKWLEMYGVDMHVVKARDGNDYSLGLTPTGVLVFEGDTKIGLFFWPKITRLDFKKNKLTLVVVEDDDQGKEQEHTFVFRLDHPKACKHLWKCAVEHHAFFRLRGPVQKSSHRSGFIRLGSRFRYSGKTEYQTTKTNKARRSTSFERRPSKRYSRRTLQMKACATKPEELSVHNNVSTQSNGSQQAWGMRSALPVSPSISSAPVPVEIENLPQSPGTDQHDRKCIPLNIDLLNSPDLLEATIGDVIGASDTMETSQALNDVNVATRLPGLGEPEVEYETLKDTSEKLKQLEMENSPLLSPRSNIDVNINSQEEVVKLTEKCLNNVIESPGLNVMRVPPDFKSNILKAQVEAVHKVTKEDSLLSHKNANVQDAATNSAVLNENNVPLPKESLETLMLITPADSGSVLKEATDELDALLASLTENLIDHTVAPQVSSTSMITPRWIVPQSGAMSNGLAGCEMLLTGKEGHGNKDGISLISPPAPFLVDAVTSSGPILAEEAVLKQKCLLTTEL
UniProt Q9Y282: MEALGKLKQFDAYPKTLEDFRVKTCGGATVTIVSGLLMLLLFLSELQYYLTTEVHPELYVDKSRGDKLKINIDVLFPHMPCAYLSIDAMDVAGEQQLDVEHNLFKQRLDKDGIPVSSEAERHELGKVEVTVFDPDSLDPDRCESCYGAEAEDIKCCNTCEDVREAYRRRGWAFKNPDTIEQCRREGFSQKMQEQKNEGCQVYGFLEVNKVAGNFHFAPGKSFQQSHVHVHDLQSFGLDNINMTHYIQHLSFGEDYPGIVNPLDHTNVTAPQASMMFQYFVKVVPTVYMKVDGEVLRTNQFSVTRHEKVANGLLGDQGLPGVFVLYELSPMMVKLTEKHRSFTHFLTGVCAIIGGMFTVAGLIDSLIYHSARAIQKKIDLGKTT

[2] = compound: ClCC(=O)N[C@H]1CCCc2ccccc12; experiment: as above; settings: treatment time: 4 h, cell line lysate: HEK293T
Procedure: as §1

Row | Target | log2 mean competition ratio ([1]; 50 µM) | log2 mean competition ratio ([1]; 200 µM) | log2 mean competition ratio ([2]; 50 µM) | log2 mean competition ratio ([2]; 200 µM)
1 | ENAH C7 (UniProt Q8N8S7) | -0.248 | 0.468 | -0.317 | 0.248
2 | ERO1A_(C99,C99,C104,C104) (UniProt Q96HE7) | 0.00205 | 0.197 | -0.189 | -0.0839
3 | ERICH1 C415 (UniProt Q86X53) | 0.206 | 0.272 | -0.73 | -0.309
4 | EME1 C437 (UniProt Q96AY2) | -0.136 | -0.101 | -0.00888 | 0.0223
5 | ELP4 C218 (UniProt Q96EB1) | 0.164 | 0.466 | 0.246 | 1.14
6 | FANCM C1704 | -0.0309 | -0.0942 | -0.0971 | -0.144
7 | ELP4 C7 (UniProt Q96EB1) | -0.325 | 0.0824 | -0.369 | 0.0715
8 | EPB41 C224 | -0.411 | 0.13 | -0.536 | 0.027
9 | EPHX4 C287 | 0.037 | -0.00927 | 0.817 | 0.0202
10 | EXOSC9 C9 (UniProt Q06265) | -0.157 | -0.0952 | 0.271 | -0.0969
11 | ERMP1 C43 (UniProt Q7Z2K6) | 0.206 | -0.049 | 0.313 | 0.137
12 | ELP2 C127 (UniProt Q6IA86) | 0.0592 | -0.537 | -0.525 | -0.22
13 | ERAL1 C150 (UniProt O75616) | 0.183 | -0.09 | 0.266 | 0.052
14 | ERI3 C245 | -0.0949 | 0.0143 | -0.508 | 0.0807
15 | EPC2 C420 (UniProt Q52LR7) | 0.145 | 0.272 | -0.582 | 0.194
16 | EXOC4 C619 (UniProt Q96A65) | 0.117 | -0.0529 | 0.0709 | -0.126
17 | ENOX2 C216 | -0.305 | -0.0933 | -0.203 | -0.0343
18 | FAM136A C114 (UniProt Q96C01) | 0.16 | 0.736 | 0.161 | 0.519
19 | ESPNL C983 | -0.41 | 0.264 | -0.0762 | 0.0466
20 | EPHB3 C648 (UniProt P54753) | -0.309 | -0.113 | 0.00899 | 0.21

Row | Target | log2 mean competition ratio ([1]; 50 µM) | log2 mean competition ratio ([1]; 200 µM) | log2 mean competition ratio ([2]; 50 µM) | log2 mean competition ratio ([2]; 200 µM)
21 | ETF1 C97 (UniProt P62495) | 0.107 | 0.116 | 0.168 | -0.387
22 | FAM193B C400 (UniProt Q96PV7) | 0.342 | 0.316 | 0.0914 | -0.324
23 | EPHA2 C612 (UniProt P29317) | 0.0834 | 0.0743 | -0.211 | 0.0571
24 | FAM8A1 C93 (UniProt Q9UBU6) | 0.0424 | -0.0847 | -0.27 | -0.208
25 | EXOC8 C664 (UniProt Q8IYI6) | 0.00391 | 0.0256 | 0.00115 | 0.0123
26 | EXOC1 C566 (UniProt Q9NV70) | -0.163 | 0.145 | -0.0367 | 0.000847
27 | FAM8A1 C343 (UniProt Q9UBU6) | -0.247 | -0.326 | 0.0834 | -0.215
28 | FAHD1 C129 (UniProt Q6P587) | 0.152 | 0.115 | -0.0901 | 0.163
29 | EXOSC6 C64 (UniProt Q5RKV6) | 0.0237 | -0.156 | 0.36 | 0.175
30 | EP400 C1368 (UniProt Q96L91) | 0.0584 | -0.0502 | -0.0454 | -0.267
31 | EXOC5 C236 (UniProt O00471) | -0.0504 | 0.0279 | -0.346 | 0.0152
32 | FANCD2 C1369 (UniProt Q9BXW9) | 0.0464 | -0.0553 | -0.051 | -0.0101
33 | ESCO1 C362 | -0.231 | 0.182 | -0.0376 | -0.056
34 | ENDOG C113 (UniProt Q14249) | 0.0613 | 0.107 | -0.142 | 0.11
35 | ERO1B C165 (UniProt Q86YB8) | 0.163 | – | -0.422 | 0.54
36 | ETHE1 C219 (UniProt O95571) | 0.00978 | -0.308 | -0.332 | -0.15
37 | EXOC6 C28 (UniProt Q8TAG9) | -0.331 | 0.00209 | 0.0203 | 0.0386
38 | FANCC C286 (UniProt Q00597) | – | 0.447 | – | -0.031
39 | ERI3 C313 | 0.43 | 0.546 | -0.265 | 0.259
40 | FAN1 C649 | 0.239 | 0.184 | -0.52 | 0.303

Row | Target | log2 mean competition ratio ([1]; 50 µM) | log2 mean competition ratio ([1]; 200 µM) | log2 mean competition ratio ([2]; 50 µM) | log2 mean competition ratio ([2]; 200 µM)
41 | FAM193A C106, A0A1B0GVL4 | -0.132 | 0.468 | -0.172 | 0.0662
42 | FAM120B C356 (UniProt Q96EK7) | -0.283 | 0.0851 | 0.0369 | 0.122
43 | ESYT2 C611 | -0.257 | -0.128 | -0.497 | -0.298
44 | EYA4 C16 (UniProt O95677) | -0.277 | 0.325 | -0.245 | 0.299
45 | EVI5L C150 (UniProt Q96CN4) | 0.0738 | 0.191 | 0.0606 | 0.519
46 | FAM120B C523 (UniProt Q96EK7) | -0.419 | 0.358 | -0.343 | 0.129
47 | FANCI C156 (UniProt Q9NVI1) | 0.0929 | 0.161 | 0.184 | 0.141
48 | ESPL1 C1345 (UniProt Q14674) | 0.0859 | 0.152 | -0.158 | -0.218
49 | EPHB3 C772 (UniProt P54753) | 0.611 | 0.315 | -0.0263 | 0.163
50 | FAM222B C288 (UniProt Q8WU58) | -0.403 | 0.231 | 0.109 | 0.267
51 | ESD C11 (UniProt P10768) | -0.366 | 0.292 | -0.472 | 0.191
52 | EMG1 C171 (UniProt Q92979) | -0.0796 | 0.332 | -0.697 | 0.00517
53 | EPC2 C626 (UniProt Q52LR7) | -0.487 | 0.017 | -0.0823 | 0.124
54 | EXD2 C227 (UniProt Q9NVH0) | 0.42 | -0.0367 | 0.773 | 0.403
55 | ETAA1 C26 (UniProt Q9NY74) | -0.0876 | -0.0923 | 0.0143 | -0.147
56 | ELOVL5 C61 (UniProt Q9NYP7) | 0.0956 | 0.479 | 0.131 | 0.469
57 | FAM83B C801 (UniProt Q5T0W9) | 0.29 | 0.104 | -0.254 | -0.154
58 | EPB41L5 C543 (UniProt Q9HCM4) | – | 1.27 | – | 0.641
59 | ERGIC3 C199 (UniProt Q9Y282) | 0.355 | 0.0561 | 0.371 | 0.34
60 | FAM120B C344 (UniProt Q96EK7) | -0.141 | 0.612 | 0.176 | 0.342

Record cards, as listed above. Order of values: log2 mean competition ratio ([1]; 50 µM) | log2 mean competition ratio ([1]; 200 µM) | log2 mean competition ratio ([2]; 50 µM) | log2 mean competition ratio ([2]; 200 µM)
ELOVL5 C61 (UniProt Q9NYP7) as listed: 0.0956 | 0.479 | 0.131 | 0.469
EPC2 C626 (UniProt Q52LR7) as listed: -0.487 | 0.017 | -0.0823 | 0.124
ERGIC3 C199 (UniProt Q9Y282) as listed: 0.355 | 0.0561 | 0.371 | 0.34

Source: the supplement of paper PMC11732987, “Enantioselective OTUD7B fragment discovery through chemoproteomics screening and high-throughput optimisation” (Communications Chemistry, 2025)
